The test concerns the target T1, ATG101, BiFC fusion (Arabidopsis) (UniProt F4K265).
T1 sequence: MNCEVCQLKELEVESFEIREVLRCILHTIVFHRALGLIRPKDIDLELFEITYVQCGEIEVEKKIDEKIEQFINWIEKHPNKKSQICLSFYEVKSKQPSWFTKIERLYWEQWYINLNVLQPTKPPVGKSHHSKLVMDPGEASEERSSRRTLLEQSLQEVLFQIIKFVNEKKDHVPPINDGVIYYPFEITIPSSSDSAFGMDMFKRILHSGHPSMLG
As to the kind of experiment: split reporter.

No constants are given. Whether binding was seen depends on the method and setting. Binding seen in cells or lysates may run through a third protein. Tags and fused reporters may be left off the sequences shown.

For the substance “phosphoglycerate kinase 2 (PGK2), BiFC fusion (Arabidopsis) (enzyme)”, the binding entry is “no binding”.

The record behind these values is doi:10.1101/2022.07.12.499818.
